# Percent effect of library compounds

Sequences of proteins named here, by UniProt entry; tags and fusion partners are left off. Residues count along the entry.
UniProt Q8IDJ8, 1-583: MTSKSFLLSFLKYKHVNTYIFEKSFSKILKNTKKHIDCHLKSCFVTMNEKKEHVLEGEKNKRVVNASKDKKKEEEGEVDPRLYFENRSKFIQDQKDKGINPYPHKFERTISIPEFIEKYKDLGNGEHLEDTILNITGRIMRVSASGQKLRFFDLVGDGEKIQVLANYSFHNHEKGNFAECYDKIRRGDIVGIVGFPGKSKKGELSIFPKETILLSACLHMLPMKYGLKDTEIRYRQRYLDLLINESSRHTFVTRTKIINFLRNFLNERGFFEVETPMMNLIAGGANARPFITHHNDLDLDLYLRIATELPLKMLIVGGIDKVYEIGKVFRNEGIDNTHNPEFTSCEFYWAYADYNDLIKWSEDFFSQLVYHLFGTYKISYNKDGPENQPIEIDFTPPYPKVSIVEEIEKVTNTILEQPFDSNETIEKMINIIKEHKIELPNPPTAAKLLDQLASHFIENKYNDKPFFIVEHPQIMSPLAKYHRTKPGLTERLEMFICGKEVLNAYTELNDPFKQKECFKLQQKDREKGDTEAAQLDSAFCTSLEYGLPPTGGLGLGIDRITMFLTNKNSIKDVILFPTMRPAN
UniProt Q4DA54, 1-478: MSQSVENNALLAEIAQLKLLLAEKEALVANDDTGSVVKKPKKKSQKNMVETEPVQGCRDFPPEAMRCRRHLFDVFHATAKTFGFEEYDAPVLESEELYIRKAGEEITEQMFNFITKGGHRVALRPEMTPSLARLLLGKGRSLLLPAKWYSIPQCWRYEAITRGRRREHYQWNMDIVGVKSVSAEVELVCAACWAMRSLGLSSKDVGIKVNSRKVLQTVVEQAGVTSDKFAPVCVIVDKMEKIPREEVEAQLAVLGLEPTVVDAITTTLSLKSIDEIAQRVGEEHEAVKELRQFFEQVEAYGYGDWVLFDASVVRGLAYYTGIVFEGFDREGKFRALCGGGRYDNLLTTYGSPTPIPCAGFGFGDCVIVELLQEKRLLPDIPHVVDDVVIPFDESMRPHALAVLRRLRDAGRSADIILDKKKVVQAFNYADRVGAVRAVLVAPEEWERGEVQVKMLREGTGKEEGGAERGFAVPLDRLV
UniProt I6X8D2, whole entry: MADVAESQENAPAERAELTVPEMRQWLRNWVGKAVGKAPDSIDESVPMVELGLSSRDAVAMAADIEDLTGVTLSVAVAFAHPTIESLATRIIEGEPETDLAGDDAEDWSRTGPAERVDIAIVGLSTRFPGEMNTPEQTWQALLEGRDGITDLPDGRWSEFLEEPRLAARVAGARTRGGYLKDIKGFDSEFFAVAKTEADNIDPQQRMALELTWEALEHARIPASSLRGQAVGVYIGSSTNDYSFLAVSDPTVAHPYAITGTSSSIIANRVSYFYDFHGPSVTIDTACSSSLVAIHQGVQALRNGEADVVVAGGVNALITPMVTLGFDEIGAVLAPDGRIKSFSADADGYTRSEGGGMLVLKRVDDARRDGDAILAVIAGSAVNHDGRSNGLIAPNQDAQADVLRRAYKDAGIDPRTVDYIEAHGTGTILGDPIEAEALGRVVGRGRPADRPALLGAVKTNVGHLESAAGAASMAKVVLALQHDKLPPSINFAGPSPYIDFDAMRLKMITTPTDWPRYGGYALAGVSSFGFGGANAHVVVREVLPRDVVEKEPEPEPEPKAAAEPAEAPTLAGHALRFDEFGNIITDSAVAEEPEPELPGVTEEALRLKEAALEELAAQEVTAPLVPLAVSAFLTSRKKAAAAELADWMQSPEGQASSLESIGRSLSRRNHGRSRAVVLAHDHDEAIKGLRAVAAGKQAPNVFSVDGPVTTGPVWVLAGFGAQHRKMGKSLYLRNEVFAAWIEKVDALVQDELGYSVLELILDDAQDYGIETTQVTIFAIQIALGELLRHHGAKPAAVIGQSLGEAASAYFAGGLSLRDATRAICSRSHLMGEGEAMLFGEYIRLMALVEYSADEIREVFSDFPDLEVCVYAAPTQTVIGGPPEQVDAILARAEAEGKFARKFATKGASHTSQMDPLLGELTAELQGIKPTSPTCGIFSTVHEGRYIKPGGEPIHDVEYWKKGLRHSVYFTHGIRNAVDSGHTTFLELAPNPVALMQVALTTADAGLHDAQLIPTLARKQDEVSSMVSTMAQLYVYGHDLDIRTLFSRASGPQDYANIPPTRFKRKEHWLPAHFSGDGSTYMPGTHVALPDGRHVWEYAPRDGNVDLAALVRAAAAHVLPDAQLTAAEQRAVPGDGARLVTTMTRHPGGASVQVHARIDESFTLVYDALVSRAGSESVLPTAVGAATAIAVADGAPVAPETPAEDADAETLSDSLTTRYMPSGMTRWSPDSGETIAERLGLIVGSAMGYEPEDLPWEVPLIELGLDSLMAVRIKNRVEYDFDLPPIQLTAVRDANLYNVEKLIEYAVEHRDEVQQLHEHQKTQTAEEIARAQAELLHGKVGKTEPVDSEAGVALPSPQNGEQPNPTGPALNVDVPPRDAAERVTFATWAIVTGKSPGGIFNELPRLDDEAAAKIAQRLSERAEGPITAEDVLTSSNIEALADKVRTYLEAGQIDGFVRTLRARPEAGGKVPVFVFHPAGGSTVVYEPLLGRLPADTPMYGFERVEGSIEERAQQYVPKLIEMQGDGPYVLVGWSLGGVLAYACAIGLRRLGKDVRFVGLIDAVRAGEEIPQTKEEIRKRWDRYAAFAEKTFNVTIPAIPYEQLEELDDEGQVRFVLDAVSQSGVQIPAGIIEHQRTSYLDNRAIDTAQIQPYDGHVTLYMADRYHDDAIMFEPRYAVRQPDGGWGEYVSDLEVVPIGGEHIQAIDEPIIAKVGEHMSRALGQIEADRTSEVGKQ

Source: ChEMBL document CHEMBL3988442, “University of Dundee, Small-Polar-MMV Screening Library” (2021).

Values are the deposited “Percent Effect”, in %. The record does not define 0% and 100%; most values in the screen are far below 50% and negative numbers occur (in some assays of this library far below -100). The compounds are a random part of those screened. Two or more numbers in one place are separate tests of the same structure; such repeats can differ widely. A dash means the value is not listed here; it may have been measured.

PfKRS1: 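Lysine-tRNA ligase, Plasmodium falciparum 3D7 (UniProt Q8IDJ8). Enzyme assay of the cytosolic lysyl-tRNA synthetase in 384-well plates, read by luminescence. Concentration: 30 µM. Direction is inferred from only a few compounds that gave an IC50; most scored high, so higher reads as stronger inhibition. About 69,000 compounds were tested under these conditions; 0.071% (about 49) showed 50% or more at least once.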
TcHisRS: 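Enzyme assay of histidyl-tRNA synthetase; the read-out is not stated. Target: Histidine-tRNA ligase, Trypanosoma cruzi CL Brener (UniProt Q4DA54). Compounds at 30 µM. Higher reads as stronger inhibition (inferred: compounds with an IC50 in retests scored well above the rest). Size under these conditions: about 69,000 compounds, about 31 of them at 50% or above in at least one test.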
Leishmania in macrophages: 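Cell assay of Leishmania donovani living inside macrophages; the read-out is not stated. Tested at 30 µM. The record gives no direction; compounds that gave an IC50 in retests scored well above the rest, so higher reads as stronger inhibition. Size under these conditions: about 69,000 compounds, about 1,000 of them at 50% or above in at least one test.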
Pks13 thioesterase: 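Polyketide synthase Pks13, Mycobacterium tuberculosis (UniProt I6X8D2). Enzyme assay of the thioesterase domain of polyketide synthase 13; the read-out is not stated. Compounds at 30 µM. The record gives no direction; the compounds picked for IC50 retests had high values, so higher reads as stronger inhibition. Of about 67,000 compounds tested this way, about 300 (0.46%) reached 50% or more in at least one test.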

compound | PfKRS1 | TcHisRS | Leishmania in macrophages | Pks13 thioesterase
COCCN1CCC2(CCCN(c3ncccn3)C2)C1.O=C(O)C(F)(F)F (centres unmarked) | - | - | 34.92% | -
CN(Cc1ccsc1)C(=O)c1cccc(F)c1 | 5.344% | 0.7634% | 4.793% | -10.15%
[H][C@@]12CCN(C(=O)COC3CCCC3)C[C@]1(COCC1CC1)CCO2 | - | - | 2.497% | -
O=C(NCc1ccc(OCC2CC2)nc1)c1c(F)cccc1F | 2.937% | 4.348% | 13.34% | -19.5%
O=C(NC1CCCOc2cc(Cl)ccc21)c1ccc(=O)[nH]n1 (centres unmarked) | 4.281% | 2.97% | -12.06% | -2.382%
[H][C@]12CN(Cc3nc(C)c[nH]3)CC[C@@]1(O)CCN(C(=O)C1CCCC1)C2 | - | - | -9.502% | -
COc1cccc(-c2cc(C(=O)NCCCC(F)(F)F)[nH]n2)c1 | 3.24% | -3.96% | 24.25% | 12.49%
Cc1ccc(C2CSCCN2CC(=O)N2CCOCC2)cc1 (centres unmarked) | -1.24% | 0% | -3.375% | -1.578%
Cc1ccc(CNC(CN2CCN(C)CC2)c2ccccc2)cc1 (centres unmarked) | -0.189% | -0.8475% | 94.58% | -18.93%
Cc1noc(C)c1C(=O)N(Cc1ccsc1)CC1CCCO1 (centres unmarked) | -1.212% | 5.882% | -4.249% | -9.513%
O=c1c2sccc2ncn1CC(O)CN1CCOCC1 (centres unmarked) | 3.587% | 6.329% | -2.887% | -6.208%
O=C(C1CCC1)N1CCC(C(=O)N2CCC(c3ccc(F)cc3)C2)CC1 (centres unmarked) | 2.379% | 7.263% | -17.43% | 30.03%
CCN1CCN(CCNC(=O)c2sc(C(C)C)nc2C)CC1 | 1.929% | 6.553% | 12.79% | -19.11%
COC(=O)NCC(=O)N1CCCC1c1nc(-c2ccccc2F)c[nH]1 (centres unmarked) | -2.332% | 4.545% | 5.96% | -
CN(C)C(=O)c1cccc(CN2CCN(CCO)CC2)c1 | -3.651% | 0% | -0.5534% | -26.14%
CCN(Cc1ccncc1)C1CCCN(Cc2ccc(F)cc2OC)C1 (centres unmarked) | -2.222% | 11.11% | 24.49% | -25.47%
CNCC[C@H]1CC(C)(C)Oc2ccc(OCC3CC3)cc21 | 3.849% | 10.17% | 21.35% and 21.34% | -2.762%
CS(=O)(=O)CCN(CCCO)C1CCc2ccccc21 (centres unmarked) | 0% | 4.294% | 27.69% | -4.536%
O=C1CC2(CCN(Cc3ccoc3)C2)CN1c1ccc2c(c1)OCO2 (centres unmarked) | 6.839% | 4.918% | 8.376% | -10.97%
Cn1cccc1C(=O)N1CCCC2(CCN(CCN3CCCC3)C2=O)C1.O=C(O)C(F)(F)F (centres unmarked) | - | - | 2.427% | -
COc1cc(C)ccc1S(=O)(=O)N1CC[C@](C)(O)[C@H](C)C1 | 5.125% | 1.961% | 14.02% | -
CC1c2cc(F)ccc2CCN1C(=O)c1[nH]c(=O)[nH]c(=O)c1N (centres unmarked) | 1.079% | 5.051% | 21.33% | 2.927%
O=C(O)C(F)(F)F.[H][C@]12CCN(CC3CC3)C[C@]1([H])CN(c1ncc(C)cn1)C2 | - | - | 1.612% | -
O=C(CN1CC(c2nc(-c3cccs3)no2)C1)NCC1CCCO1.O=C(O)C(=O)O (centres unmarked) | - | - | 24.21% and 14.26% | -
COc1ccc(Cl)cc1C(=O)N1C[C@@H](NC(=O)N(C)C)[C@H](C(C)C)C1 | -2.418% | 11.06% | 29.81% | -0.8383%
COCC1CN(C(=O)Cc2cccs2)Cc2nnn(CC3CC3)c21 (centres unmarked) | -8.73% | 1.22% | 7.821% | -10.41%
N#Cc1ccc(N2CCCN(CC(N)=O)CC2)cc1 | 3.377% | 4.202% | 21.19% | -7.12%
CC(CC#N)N(C)Cc1ccc(F)cc1F (centres unmarked) | 1.302% | 0.5405% | -30.46% | -34.38%
Cc1c(CN2CCCC(C(=O)c3ccc(C(C)(C)C)cc3)C2)cnn1C (centres unmarked) | 1.236% | 2.899% | 34.79% | 0.205%
Cc1cccc(O[C@H]2COCCN(C3CCOCC3)C2)n1 | 6.712% | -0.4975% | 23.78% | -27.54%
COc1ccc(CN2CCc3sccc3C2C)cc1CN1CCOCC1 (centres unmarked) | 2.446% | 7.752% | - | -2.272%
O=C(CCN1CCOCC1)N1CCC(Cc2ccc(CO)cc2)C1 (centres unmarked) | -1.177% | 2.116% | 7.475% | -26.36%
CC(C)NC(=O)N1CCN(C(=O)N(C)C)CC2(CC(=O)N(C)C2)C1 (centres unmarked) | 1.818% | -2.674% | -10.98% | -11.26%
CCCNc1ncc(CN2CCOC(Cc3cccc(F)c3)C2)cn1 (centres unmarked) | 10.93% | 1.786% | -6.742% | -8.9%
Cc1cccc2c1nc(COCC(=O)O)n2-c1ccc(N)nc1 | 3.758% | 7.955% | -11.33% | -8.338%
Cc1noc([C@H]2CC[C@@H]3[C@@H](CCN3S(C)(=O)=O)O2)n1 | 4.829% | -2.674% | - | -10.17%
CCCc1nc(C(C)(C)NC(=O)C2CC(=O)N(CCOC)C2)no1 (centres unmarked) | 1.924% | 4.094% | 19.03% | -0.501%
CC(C)n1cnnc1CN(C)C(=O)C1CCCN(CC(N)=O)C1 (centres unmarked) | 6.635% | 9% | 1.902% | 0.336%
O=C(CN1CCCC1Cn1cncn1)Nc1ccc(Cl)cn1 (centres unmarked) | -0.6212% | 5.804% | 18.44% | 14.29%
CC(C)c1nc(CN(C)C(=O)C(O)c2ccc(Cl)cc2)cs1 (centres unmarked) | 6.469% | 0.5291% | -6.394% | -17.33%
CC(=O)NCC(=O)N1Cc2c(-c3cccc(C)c3)nc(N)nc2C1C (centres unmarked) | 6.14% | 6.186% | 25.76% | -10.03%
O=C(NCCn1ccc(-c2ccccn2)n1)C1CC1 | -0.9035% | 2.174% | 1.847% | -9.768%
CS(=O)(=O)NCCCn1ccc2ccccc21 | 4.863% | 18.45% | 6.324% | -16.2%
Cc1noc(COCC(=O)Nc2cc(C)c(Br)cn2)n1 | 7.292% | 1.724% | 6.645% | -6.156%
CNS(=O)(=O)c1ccc(CN2CCCN(c3ccccc3)CC2)cc1 | 4.245% | 0.4926% | 13.29% | 4.793%
O=C(O)C(F)(F)F.O=C(O)C(F)(F)F.O=C(O)C(F)(F)F.[H][C@@]12COC[C@]1(COc1cccnc1)CN(Cc1cccc(C)n1)C2 | - | - | 38.11% | -
COc1ccccc1-c1cccc(C2CCCN(C3CCOCC3)C2)n1 (centres unmarked) | -1.711% | 7.91% | 4.584% | -10.79%
CC(=O)N1CC(=O)N(c2ccccc2)CC12CCN(CC1CC1)C2 (centres unmarked) | -2.683% | 2.732% | - | -3.96%
[H][C@]12CC[C@]([H])(CN(Cc3ccccc3)C1)N(C(=O)CSC)C2 | - | - | 50.94% | -
CN(C(=O)c1ccc(NC(=O)c2cc[nH]n2)cc1)C1CCCCC1 | 1.042% | 4.819% | 16.41% | -13.79%
CCCN1Cc2cc(Br)ccc2OCC1=O | -4.928% | 4.39% | -4.427% | 1.762%
Cc1ccc(O)c(CNC2CCCN(Cc3noc(C4CC4)n3)C2)n1 (centres unmarked) | -0.1055% | 5.848% | 5.782% | -4.263%
CCn1nc(CC(C)C)cc1C(=O)N1C[C@H](O)[C@@H](N2CCCCC2)C1 | 5.562% | 2.075% | 38.16% | -20.39%
CNC(=O)[C@@H]1C[C@@H](NC(=O)Cc2nonc2C)CN1Cc1sccc1C | 5.233% | 1.064% | -23.11% | -10.66%
c1ccc(CN2CCC3(COCc4cnc(NCC5CC5)nc43)C2)cc1 (centres unmarked) | 5.82% | 6.14% | 36.35% | -13.53%

Repeated from the top, 3 entries:

COCCN1CCC2(CCCN(c3ncccn3)C2)C1.O=C(O)C(F)(F)F (centres unmarked) read Leishmania in macrophages: 34.92%.
CN(Cc1ccsc1)C(=O)c1cccc(F)c1 read PfKRS1: 5.344%; TcHisRS: 0.7634%; Leishmania in macrophages: 4.793%; Pks13 thioesterase: -10.15%.
[H][C@@]12CCN(C(=O)COC3CCCC3)C[C@]1(COCC1CC1)CCO2 read Leishmania in macrophages: 2.497%.